For the test, the system named is RAW 264.7. In words: cell viability (MTT) relative to vehicle control; higher = more viable cells. To be noted: stimulus: HMGB1 5 ug/ml, 18 h.
Setting [1] is: compound concentration: 1 ug/ml.

For 44 molecules, cell viability results are on record in the supplement of paper PMC3682954.

Where a name gives a salt, the structure may show the parent alone. ± gives the standard deviation of the averaged measurements. Some of the results follow. Many values rest on one well or one pass, so single values are uncertain.

For `O=C(/C=C/C=C/c1ccc2c(c1)OCO2)N1CCCCC1`, the cell viability (compound concentration: 3 uM) is 99.6%.

For `O=c1c2ccccc2nc2n1CCc1c-2[nH]c2ccccc12` [Rutaecarpine], the cell viability (compound concentration: 3 uM) came to 97.5%.

For `CCCCc1nc(Cl)c(CO)n1Cc1ccc(-c2ccccc2-c2nnn[nH]2)cc1` [Losartan], the cell viability (compound concentration: 3 uM) worked out at 104%.

For `CCCCc1nc(Cl)c(CO)n1Cc1ccc(-c2ccccc2-c2nnn[nH]2)cc1` [Losartan potassium], the cell viability (compound concentration: 3 uM) worked out at 99.8%.

For `CCCCc1nc(Cl)c(CO)n1Cc1ccc(-c2ccccc2-c2nnn[nH]2)cc1` [LOSARTAN Potassium], the cell viability (compound concentration: 3 uM) was 100%.

As to `CCCCc1nc(Cl)c(CO)n1Cc1ccc(-c2ccccc2-c2nnn[nH]2)cc1`, the cell viability (compound concentration: 3 uM) was 107%.

Consider `CC1(C)S[C@@H]2[C@H](NC(=O)Cc3ccccc3)C(=O)N2[C@H]1C(=O)O` [Benzathine benzylpenicillin], for which the cell viability (compound concentration: 3 uM) is 94.2%.

As for `CC1(C)S[C@@H]2[C@H](NC(=O)Cc3ccccc3)C(=O)N2[C@H]1C(=O)O` [Benzylpenicillin sodium], the cell viability (compound concentration: 3 uM) amounted to 94.6%.

Take `CC1(C)S[C@@H]2[C@H](NC(=O)Cc3ccccc3)C(=O)N2[C@H]1C(=O)O`: under “compound concentration: 3 uM”, the cell viability was 108%.

As for `C=CCCCCCCCCC(=O)O`, the cell viability (compound concentration: 3 uM) worked out at 103%.

Regarding `COc1c(O)cc2oc3cc(O)c(CC=C(C)C)c(O)c3c(=O)c2c1CC=C(C)C` [Mangostin], the cell viability under setting [1] worked out at 98.5%.

With `Clc1ccc(C(Cn2ccnc2)OCc2csc3c(Cl)cccc23)c(Cl)c1` (centres undefined) [Sertaconazole nitrate], the cell viability (compound concentration: 3 uM) was determined as 92.3%.

For the molecule `Clc1ccc(C(Cn2ccnc2)OCc2csc3c(Cl)cccc23)c(Cl)c1` (centres undefined) [Sertaconazole], the cell viability (compound concentration: 3 uM) came out at 120%.

In the case of `CCOc1ccc(NC(=O)CC(C)O)cc1` (centres undefined), under “compound concentration: 3 uM”, the cell viability was 103%.

On to `CC(C)(C)NCC(O)c1ccc(O)c(CO)c1` (racemic), for which the cell viability (compound concentration: 3 uM) came to 100%.

For `CC(=O)OCC1=C(C(=O)O)N2C(=O)[C@@H](NC(=O)Cc3cccs3)[C@H]2SC1`, the cell viability (compound concentration: 3 uM) was found to be 106%.

As for `CC(=O)OCC1=C(C(=O)O)N2C(=O)[C@@H](NC(=O)Cc3cccs3)[C@H]2SC1` [Cephalothin sodium], the cell viability (compound concentration: 3 uM) worked out at 102%.

As for `CC(=O)OCC1=C(C(=O)O)N2C(=O)[C@@H](NC(=O)Cc3cccs3)[C@H]2SC1` [Cephalothin sodium salt], under “compound concentration: 3 uM”, the cell viability was 106%.

For the molecule `Cc1nc2n(c(=O)c1CCN1CCC(c3noc4cc(F)ccc34)CC1)CCCC2O` (centres undefined) [Paliperidone], where the note is “compound concentration: 3 uM”, the cell viability turned out to be 106%.

For `CCN(CC)CCNC(=O)COc1ccc(OC)cc1`, the cell viability (compound concentration: 3 uM) was found to be 113%.

Take `CCN(CC)CCNC(=O)COc1ccc(OC)cc1` [Mefexamide hydrochloride]: the cell viability (compound concentration: 3 uM) turned out to be 104%.

Regarding `O=C1NCCN1CCN1CCC(c2cn(-c3ccc(F)cc3)c3ccc(Cl)cc23)CC1` [Sertindole], the cell viability (compound concentration: 3 uM) turned out to be 117%.

Consider `CC1(C)CC[C@]2(C(=O)O)CC[C@]3(C)C(=CC[C@@H]4[C@@]5(C)CC[C@H](O)C(C)(C)[C@@H]5[C@H](O)C[C@]43C)[C@@H]2C1` [Sumaresinolic acid], for which the cell viability under setting [1] was 108%.

For `O=C1CCC(N2C(=O)c3ccccc3C2=O)C(=O)N1` (centres undefined), for the setting “compound concentration: 3 uM”, the cell viability is 97.8%.

`O=C1CCC(N2C(=O)c3ccccc3C2=O)C(=O)N1` (centres undefined) [Thalidomide]: the cell viability (compound concentration: 3 uM) came out at 94.6 ± 5.9%.

For the molecule `CNCCCN1c2ccccc2CCc2ccccc21` [Desipramine hydrochloride], under “compound concentration: 3 uM”, the cell viability came out at 97.8 ± 7.1%.

As to `CNCCCN1c2ccccc2CCc2ccccc21`, the cell viability (compound concentration: 3 uM) is 95.7%.

`Cc1ccsc1C(=CCCN1CCC[C@@H](C(=O)O)C1)c1sccc1C`: where the note is “compound concentration: 3 uM”, the cell viability worked out at 98.8%.

`CC[n+]1c(-c2ccccc2)c2cc(N)ccc2c2ccc(N)cc21`: the cell viability (compound concentration: 3 uM) was determined as 103%.

Take `O=C1OC(CN2CCOCC2)CN1/N=C/c1ccc([N+](=O)[O-])o1` (centres undefined) [Furaltadone hydrochloride]: the cell viability (compound concentration: 3 uM) came to 124%.

Consider `O=C1OC(CN2CCOCC2)CN1/N=C/c1ccc([N+](=O)[O-])o1` (centres undefined), for which the cell viability (compound concentration: 3 uM) was 108%.

For `C[C@H]1[C@H](OC(=O)CCC(=O)O)O[C@@H]2O[C@@]3(C)CC[C@H]4[C@H](C)CC[C@@H]1[C@@]24OO3` [Artesunate], the cell viability (compound concentration: 3 uM) worked out at 69.3%.

Take `C[C@H]1[C@H](OC(=O)CCC(=O)O)O[C@@H]2O[C@@]3(C)CC[C@H]4[C@H](C)CC[C@@H]1[C@@]24OO3`: the cell viability (compound concentration: 3 uM) turned out to be 73.6%.

Regarding `CC(N)C(=O)OC(C)(C)Cc1ccc(Cl)cc1` (centres undefined), the cell viability (compound concentration: 3 uM) amounted to 108%.

As for `CC(N)C(=O)OC(C)(C)Cc1ccc(Cl)cc1` (centres undefined) [Alaproclate hydrochloride], under “compound concentration: 3 uM”, the cell viability came to 96.5%.

For the molecule `Cc1cccc(Nc2ccccc2C(=O)O)c1C`, the cell viability (compound concentration: 3 uM) was 109%.

In the case of `Cc1cccc(Nc2ccccc2C(=O)O)c1C` [Mefenamic acid], the cell viability (compound concentration: 3 uM) stood at 90.8 ± 10%.

Consider `CCC(C)n1ncn(-c2ccc(N3CCN(c4ccc(OCC5COC(Cn6cncn6)(c6ccc(Cl)cc6Cl)O5)cc4)CC3)cc2)c1=O` (centres undefined) [Itraconazole], for which, where the note is “compound concentration: 3 uM”, the cell viability was determined as 99.2 ± 5.1%.

For the molecule `CCC(C)n1ncn(-c2ccc(N3CCN(c4ccc(OCC5COC(Cn6cncn6)(c6ccc(Cl)cc6Cl)O5)cc4)CC3)cc2)c1=O` (centres undefined), where the note is “compound concentration: 3 uM”, the cell viability amounted to 86.6 ± 11%.

For `CCOc1cc(N)c(Cl)cc1C(=O)NCC1CN(Cc2ccc(F)cc2)CCO1` (centres undefined), the cell viability (compound concentration: 3 uM) worked out at 89%.

For `C[n+]1ccccc1/C=N/O` [Pralidoxime chloride], the cell viability (compound concentration: 3 uM) came out at 110%.

In the case of `C[n+]1ccccc1/C=N/O`, the cell viability (compound concentration: 3 uM) stood at 105%.

For the molecule `O=C(O)CCNC(=O)c1ccc(/N=N/c2ccc(O)c(C(=O)O)c2)cc1`, the cell viability (compound concentration: 3 uM) was 97%.

Take `O=C(O)CCNC(=O)c1ccc(/N=N/c2ccc(O)c(C(=O)O)c2)cc1` [Balsalazide Sodium]: under “compound concentration: 3 uM”, the cell viability was 102%.
